Source: PubChem BioAssay
The other results are listed elsewhere or left out. These are further read-outs of the screen, such as a control signal, another cell line or another target. No call is given for them. For some assays here: Compounds called inactive in the main read-out are mostly missing here.

What was measured:
PubChem AID 1586 = details: yeast two-hybrid polyglutamine protein interaction, reporter readout; measured here: averaged growth delta OD
[1] = selective SMN2 exon splicing luciferase activators – cell-based, SMN2/SMN1 luciferase reporters (AID 1598); details: SMN2 vs SMN1 luciferase splicing reporter cells, at 10 µM; SMN1 luciferase ratio: measured here: SMN1 luciferase reporter average; SMN2 luciferase ratio: measured here: SMN2 luciferase reporter average, stronger effect = higher value
[2] = rescue of PC12 cells from polyQ htt toxicity – LDH release (AID 1610); details: PC12 mutant huntingtin toxicity, final LDH at 4 uM, stronger effect = lower value

Structure (SMILES) | signal change (36 h minus 0 h) (PubChem AID 1586) | SMN1 luciferase ratio [1] | SMN2 luciferase ratio [1] | normalised LDH release [2]
COc1c2ccoc2cc2oc(=O)ccc12 | 0.148 | 0.85 | 0.94 | 0.847
CCN(CC)CCOC(=O)C(c1ccccc1)c1ccccc1 | 0.106 | 0.92 | 1.02 | 0.975
CNCCCN1c2ccccc2CCc2ccccc21 | 0.0611 | 0.94 | 0.94 | 0.705
CCCC(=O)Nc1ccc(OCC(O)CNC(C)C)c(C(C)=O)c1 (stereo unspecified) | 0.214 | 1.53 | 1.61 | 1.53
COc1cnc(NS(=O)(=O)c2ccc(N)cc2)nc1 | 0.0795 | 0.81 | 0.8 | 0.883
COc1ccc(CN(CCN(C)C)c2ncccn2)cc1 | 0.196 | 0.89 | 0.95 | 0.189
O=C(O)CCCCC1CCSS1 (stereo unspecified) | 0.0096 | 0.98 | 0.84 | 1.29
NCc1ccc(S(N)(=O)=O)cc1 | 0.141 | 0.8 | 0.74 | 0.958
O=C(O)c1ccccc1OP(=O)(O)O | 0.153 | 0.9 | 0.93 | 0.866
CC(=O)OCC[N+](C)(C)C | 0.321 | 0.94 | 0.92 | 0.846
CCCOc1ccccc1-c1nc2n[nH]nc2c(=O)[nH]1 | 0.149 | 0.92 | 0.92 | 0.974
C=C[C@@]1(C)CC(=O)[C@@]2(O)[C@](C)(O1)[C@@H](OC(C)=O)[C@@H](O)C1C(C)(C)CC[C@H](O)[C@@]12C (stereo partly specified) | 0.135 | 1.56 | 1.56 | 0.824
OC(CCN1CCCC1)(c1ccccc1)C1CCCCC1 (stereo unspecified) | 0.17 | 0.91 | 0.93 | 0.692
NC(CO)C(=O)NNCc1ccc(O)c(O)c1O (stereo unspecified) | 0.134 | 1 | 0.91 | 0.476

Entries of single compounds as entered above:
NCc1ccc(S(N)(=O)=O)cc1 is listed with signal change (36 h minus 0 h) (PubChem AID 1586): 0.141; SMN1 luciferase ratio [1]: 0.8; SMN2 luciferase ratio [1]: 0.74; normalised LDH release [2]: 0.958
CCN(CC)CCOC(=O)C(c1ccccc1)c1ccccc1 is listed with signal change (36 h minus 0 h) (PubChem AID 1586): 0.106; SMN1 luciferase ratio [1]: 0.92; SMN2 luciferase ratio [1]: 1.02; normalised LDH release [2]: 0.975
